Test results reported in patent US11771669B2, “Topical composition and delivery system and its use” (SBG MEDICAL TECHNOLOGIES, INC., priority 2012, dated 2023).

Details: during the study and within 24 h after; 34 subjects, 1 mL topical at 0 and 4 h

SMILES: CCN(CC)CC(=O)Nc1c(C)cccc1C [lidocaine, 2-(diethylamino)-N-(2,6-dimethylphenyl)acetamide]
- Adverse effects / clinical signs of toxicity (in words): not reported
